The list shows only some results of the screen, not a fair sample: it gathers tests that were run many times, whatever their T/C, doses with no T/C, and many T/C values between a quarter and a half above the control. Other doses and runs of a compound stand elsewhere. T/C: endpoint of the treated group in % of that of the vehicle group. Some entries give survivors of the animals treated and no T/C: the source files T/C as zero there, which appears to mark a toxic dose or a test without result, not a measured value. Some doses without a T/C left all or most animals alive at the check, yet need not have been tolerated: survival well below the control is almost never listed, so the zero probably covers shortened survival too. Counts of survivors are from the toxicity check (mostly the fifth day) where no day follows; animals may have died later. Schedules are NCI's codes, read here as Q, the interval in days (D) or hours (H), X, the number of doses. Some schedule codes hold Z or #, which are not explained here. Some entries hold several experiments; their values stand side by side, smallest first. Where survival is the endpoint, this PubChem deposit counts one and a half times the control or more as active, and values a quarter to a half above the control carry no call in these data; other NCI protocols may use other cut-offs. Some T/C values are followed by the survivors on the day toxicity was checked, most often the fifth; without a count, all were alive then. Brackets with × count equal records among those shown.
Test system: L1210 leukemia ip in BDF1 mice, survival T/C
Assay: NCI In Vivo Anticancer Drug Screen. Data for tumor model L1210 Leukemia (intraperitoneal) in B6D2F1 (BDF1) mice
Conditions: T/C endpoint: mean survival time, higher T/C = longer survival
[1] = dose: 160.0 mg/kg/injection, schedule: Q01DX001 (ip), vehicle: saline

## CC[C@](O)(C(=O)O)c1cc2n(c(=O)c1CO)Cc1cc3ccccc3nc1-2
dose: 40.0 mg/kg/injection, schedule: Q04DX003 (oral), vehicle: saline
  survivor count: 3 of 6
dose: 40.0 mg/kg/injection, schedule: Q## X001 (ip), vehicle: saline
  T/C: 132 and 136 % of control [5 of 6 alive]
dose: 40.0 mg/kg/injection, schedule: Q## X002 (ip), vehicle: saline
  T/C: 143 % of control [9 of 10 alive]
dose: 40.0 mg/kg/injection, schedule: Q## X002 (oral), vehicle: saline
  survivor count: 1 of 10
dose: 40.0 mg/kg/injection, schedule: Q## X003 (ip), vehicle: saline, evaluated on day 30
  T/C: 189 % of control
dose: 40.0 mg/kg/injection, schedule: Q## X003 (ip), vehicle: saline, evaluated on day 40
  T/C: 205 and 215 % of control (2×)
dose: 40.0 mg/kg/injection, schedule: Q## X003 (oral), vehicle: saline
  survivor count: 7 of 10
dose: 40.0 mg/kg/injection, schedule: Q## X003 (oral), vehicle: water
  survivor count: 5 of 10
dose: 40.0 mg/kg/injection, schedule: Q## X008 (ip), vehicle: saline
  survivor count: 6 of 10
dose: 40.0 mg/kg/injection, schedule: Q## X008 (oral), vehicle: water
  survivor count: 2 of 10
dose: 40.0 mg/kg/injection, schedule: Q## X024 (ip), vehicle: saline
  survivor count: 1 of 10
dose: 40.0 mg/kg/injection, schedule: Q## X024 (oral), vehicle: water
  survivor count: 0 of 10
dose: 45.0 mg/kg/injection, schedule: Q03DX Z (ip), vehicle: saline
  survivor count: 6 of 6
dose: 50.0 mg/kg/injection, schedule: Q01DX001 (ip), vehicle: saline
  T/C: 131 % of control
dose: 54.0 mg/kg/injection, schedule: Q01DX001 (ip), vehicle: saline
  T/C: 142 % of control
dose: 60.0 mg/kg/injection, schedule: Q## X001 (ip), vehicle: saline
  T/C: 147 % of control [4 of 6 alive]
dose: 70.0 mg/kg/injection, schedule: Q03DX Z (ip), vehicle: saline
  survivor count: 4 of 6
dose: 75.0 mg/kg/injection, schedule: Q01DX001 (ip), vehicle: saline, evaluated on day 5
  T/C: 130, 134, 142 % of control
dose: 75.0 mg/kg/injection, schedule: Q01DX001 (ip), vehicle: saline, evaluated on day 45
  T/C: 130 [7 of 8 alive] and 142 % of control
dose: 75.0 mg/kg/injection, schedule: Q01DX001 (ip), vehicle: saline
  survivor count: 6 of 10
dose: 80.0 mg/kg/injection, schedule: Q01DX001 (ip), vehicle: saline, evaluated on day 30
  T/C: 141, 145 [5 of 6 alive], 155, 164 % of control
dose: 80.0 mg/kg/injection, schedule: Q01DX001 (ip), vehicle: saline, evaluated on day 40
  T/C: 155 and 160 % of control
dose: 80.0 mg/kg/injection, schedule: Q01DX001 (ip), vehicle: saline
  survivor count: 4 of 10
dose: 80.0 mg/kg/injection, schedule: Q01DX001 (oral), vehicle: saline
  survivor count: 1 of 10
dose: 80.0 mg/kg/injection, schedule: Q01DX001 (oral), vehicle: water
  survivor count: 5 of 10
dose: 80.0 mg/kg/injection, schedule: Q04DX003 (ip), vehicle: clinical formulation
  survivor count: 8 of 10
dose: 80.0 mg/kg/injection, schedule: Q04DX003 (ip), vehicle: saline
  T/C: 129 % of control
dose: 80.0 mg/kg/injection, schedule: Q04DX003 (ip), vehicle: water
  survivor count: 8 of 10
dose: 80.0 mg/kg/injection, schedule: Q04DX003 (oral), vehicle: saline
  survivor count: 2 of 6
dose: 80.0 mg/kg/injection, schedule: Q## X002 (ip), vehicle: saline
  survivor count: 6 of 10
dose: 80.0 mg/kg/injection, schedule: Q## X002 (oral), vehicle: saline
  survivor count: 1 of 10
dose: 80.0 mg/kg/injection, schedule: Q## X003 (ip), vehicle: saline
  survivor count: 6 of 10
dose: 80.0 mg/kg/injection, schedule: Q## X008 (ip), vehicle: saline
  survivor count: 1 of 10
dose: 80.0 mg/kg/injection, schedule: Q## X008 (oral), vehicle: water
  survivor count: 2 of 10
dose: 100.0 mg/kg/injection, schedule: Q01DX001 (ip), vehicle: saline
  T/C: 128 % of control [5 of 6 alive]
dose: 100.0 mg/kg/injection, schedule: Q04DX002 (ip), vehicle: saline
  survivor count: 3 of 3
dose: 100.0 mg/kg/injection, schedule: Q04DX003 (ip), vehicle: saline
  survivor count: 4 of 6
dose: 150.0 mg/kg/injection, schedule: Q01DX001 (ip), vehicle: saline, evaluated on day 5
  T/C: 64, 125, 241 % of control
dose: 150.0 mg/kg/injection, schedule: Q01DX001 (ip), vehicle: saline, evaluated on day 45
  T/C: 125 % of control
dose: 150.0 mg/kg/injection, schedule: Q01DX001 (ip), vehicle: saline
  survivor count: 3 of 10 and 4 of 10
[1]
  T/C: 137 [9 of 10 alive] and 189 % of control [9 of 10 alive]
  survivor count: 0 of 10, 1 of 6, 3 of 6, 5 of 6
dose: 160.0 mg/kg/injection, schedule: Q01DX001 (oral), vehicle: water
  survivor count: 4 of 10
dose: 160.0 mg/kg/injection, schedule: Q04DX003 (ip), vehicle: clinical formulation
  survivor count: 3 of 10
dose: 160.0 mg/kg/injection, schedule: Q04DX003 (ip), vehicle: saline
  survivor count: 5 of 10
dose: 160.0 mg/kg/injection, schedule: Q04DX003 (ip), vehicle: water
  survivor count: 1 of 10

Reference: PubChem BioAssay AID248 (DTP/NCI, 2004)
